{
  "source": "patent US7956065B2",
  "about": "“Pharmaceutical compounds” (Biovail Laboratories International (Barbados) S.R.L., priority 2008, dated 2011)",
  "origin": "cited, not measured here",
  "tested_on": "PCP-induced cognitive deficit in the retention phase of the NOR task in female rats",
  "settings": "clozapine 1-5 mg/kg; cited from earlier work",
  "note": "For at least one compound, name, drawing or mass did not settle the structure.",
  "data": [
    {"smiles": "CN1CCN(C2=Nc3cc(Cl)ccc3Nc3ccccc32)CC1", "note": "[clozapine]", "values": [
      {"measurement": "improvement of deficit induced by sub-chronic PCP in NOR paradigm", "result": "significantly improved"}
    ]}
  ]
}
